Results taken from patent US10106762B2, “Treating a textile garment with a hydrophobic dye solution” (Henkel IP & Holding GmbH, priority 2004, dated 2018).

Columns and labels:
[1] = Example 2: dye deposition on knitted polyester at 200 ppb in wash solution, reflectance deltaE and Ganz whiteness; conditions: 200 ppb dye; for Ganz whiteness: 1.8 g/L washing powder, accurate to +/-5 units, control 81; for Ganz whiteness / ΔE polyester: 30 minutes; for ΔE polyester: knitted polyester, UV excluded, compared to fabric washed without dye
[2] = Example 2 repeated with knitted nylon, reflectance deltaE; conditions: 200 ppb dye, 30 minutes, UV excluded
[3] = Example 1: dye deposition on woven polyester in wash solution, colour by reflectance spectrometer; conditions: 5.7-5.8 ppm dye in 1.8 g/L base washing powder, 1 g woven polyester, shaken 30 minutes, rinsed, dried; compared to polyester washed without dye

## CN=C1C=CC(=C(c2ccc(N(C)C)cc2)c2ccc(N(C)C)cc2)C=C1 [Solvent Violet 8, Solvent Violet 8 (Methyl Violet B Base)]
[1]
  Ganz whiteness: 89
  ΔE polyester: 1.1
  CT (Colour Transferred from the wash solution to the polyester, CT = deltaE/OD): 3.5
[2]
  ΔE nylon: 0.6

## CCN(CCO)c1ccc(/N=N/c2ccc([N+](=O)[O-])cc2)cc1 [disperse red 1]
[3]
  deltaE: 10.9
[1]
  Ganz whiteness: 71
  ΔE polyester: 3.4
  CT (Colour Transferred from the wash solution to the polyester, CT = deltaE/OD): 150
[2]
  ΔE nylon: 11.8

## CCN(CC)c1ccc(/N=N/c2c(C#N)cc([N+](=O)[O-])cc2C#N)c(NC(C)=O)c1 [Disperse Blue 165]
[1]
  Ganz whiteness: 129
  ΔE polyester: 7.5
  CT (Colour Transferred from the wash solution to the polyester, CT = deltaE/OD): 107
[2]
  ΔE nylon: 5.0

## COc1cc(/N=N/c2c(Br)cc([N+](=O)[O-])cc2[N+](=O)[O-])c(NC(C)=O)cc1N(CCOC(C)=O)CCOC(C)=O [Disperse Blue 79:1]
[1]
  Ganz whiteness: 113
  ΔE polyester: 4.7
  CT (Colour Transferred from the wash solution to the polyester, CT = deltaE/OD): 96
[2]
  ΔE nylon: 1.7

## Disperse Blue 367
[1]
  Ganz whiteness: 91
  ΔE polyester: 1.4
  CT (Colour Transferred from the wash solution to the polyester, CT = deltaE/OD): 250
[2]
  ΔE nylon: 1.1

## CCN(CCO)c1ccc(/N=N/c2ncc([N+](=O)[O-])s2)c(C)c1 [disperse blue 106]
[3]
  deltaE: 4.8

## Solvent blue 43
[1]
  Ganz whiteness: 88
  ΔE polyester: 0.9
  CT (Colour Transferred from the wash solution to the polyester, CT = deltaE/OD): 2.1
[2]
  ΔE nylon: 0.4

## Cc1ccccc1/N=N/c1ccc(/N=N/c2c(O)ccc3ccccc23)c(C)c1 [solvent red 24]
[3]
  deltaE: 10.6

## CC1(C)Nc2cccc3c(/N=N/c4ccc(/N=N/c5ccccc5)c5ccccc45)ccc(c23)N1 [solvent black 3]
[3]
  deltaE: 5.0
[1]
  Ganz whiteness: 74
  ΔE polyester: 1.5
  CT (Colour Transferred from the wash solution to the polyester, CT = deltaE/OD): 6.4
[2]
  ΔE nylon: 0.6
